PubChem BioAssay AID1224828 | NIAID, 2016
The whole screen tested about 17,000 reagents; below is a random part of them. Over the whole deposit, 762 (4.5%) were called active. 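Active calls include both raised and lowered p65 entry, mostly lowered; wells with fewer than 50 cells lack a z-score.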 Raw values are not corrected between plates. Reagent sequences are not shown.

Assay: 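Regulators linking TLR4 signalling to p65 nuclear translocation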 (primary screen)
System: mouse RAW264.7 G9 macrophage reporter cells (GFP-p65, Tnf promoter-mCherry)
Reagent: siRNA pool against mouse genes, 100 nM
Duration: 2 days siRNA transfection, then 40 min LPS before fixation
Challenge: LPS (Salmonella minnesota R595) at 10 ng/ml
Measurement: 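Imaged p65 nuclear translocation ratio, normalised to the plate median, converted to robust z-scores and averaged across two replicates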
Scale: p65 translocation robust z-score: higher = more nuclear NF-kappaB p65 after LPS than the plate median; nuclear/cytoplasmic p65 ratio: higher = more nuclear NF-kappaB p65
Hit rule: 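Called active when z exceeds 3.3 or falls under -1.56 (median of Tlr4 controls), giving activity score of at least 50; no calls for control wells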
Meaning of the calls: active = hit (p65 shift raised or lowered); inactive = no clear change

| Gene | p65 translocation robust z-score | nuclear/cytoplasmic p65 ratio, rep 1 | nuclear/cytoplasmic p65 ratio, rep 2 | low cell count flag | outcome |
| --- | --- | --- | --- | --- | --- |
| Kcnip3 | -0.8 | 1.34 | 1.3 | enough cells to score | inactive |
| Pcmt1 | -0.43 | 1.38 | 1.07 | enough cells to score | inactive |
| Gpx8 | – | 1.43 | 1.45 | fewer than 50 cells per well; well left out of scoring | inactive |
| Dnajc14 | -0.53 | 1.52 | 1.55 | enough cells to score | inactive |
| Tmem167 | 0.99 | 1.61 | 1.65 | enough cells to score | inactive |
| Taf5l | -0.53 | 1.47 | 1.42 | enough cells to score | inactive |
| Aqp4 | -1.17 | 1.41 | 1.47 | enough cells to score | inactive |
| Csprs | 0.11 | 1.66 | 1.73 | enough cells to score | inactive |
| Cyria | -0.55 | 1.52 | 1.67 | enough cells to score | inactive |
| Ush1g | – | 1.21 | 1.06 | fewer than 50 cells per well; well left out of scoring | inactive |
| Skint3 | -0.78 | 1.34 | 1.42 | enough cells to score | inactive |
| Trav3-3 | 1.9 | 1.17 | 1.79 | enough cells to score | inactive |
| Ap5z1 | – | 1.06 | 1.43 | fewer than 50 cells per well; well left out of scoring | inactive |

The list goes on, starting with the last 2 of the part before.
| Gene | p65 translocation robust z-score | nuclear/cytoplasmic p65 ratio, rep 1 | nuclear/cytoplasmic p65 ratio, rep 2 | low cell count flag | outcome |
| --- | --- | --- | --- | --- | --- |
| Trav3-3 | 1.9 | 1.17 | 1.79 | enough cells to score | inactive |
| Ap5z1 | – | 1.06 | 1.43 | fewer than 50 cells per well; well left out of scoring | inactive |
| Atp5f1c | 0.57 | 1.7 | 1.7 | enough cells to score | inactive |
| Ms4a2 | -0.59 | 1.36 | 1.58 | enough cells to score | inactive |
| Spred3 | 1.43 | 1.83 | 1.97 | enough cells to score | inactive |
| Adh4 | 0.96 | 1.87 | 1.66 | enough cells to score | inactive |
| Nkx6-2 | -1.44 | 1.5 | 1.32 | enough cells to score | inactive |
| Oard1 | 0.49 | 1.67 | 1.77 | enough cells to score | inactive |
| Slc9b1 | 1.34 | 1.53 | 1.71 | enough cells to score | inactive |
| Lrrtm3 | -0.93 | 1.58 | 1.4 | enough cells to score | inactive |
| Tubgcp2 | 0.46 | 1.67 | 1.48 | enough cells to score | inactive |
| Ndfip2 | 1.97 | 2.1 | 1.89 | enough cells to score | inactive |
| Pde9a | -0.63 | 1.34 | 1.35 | enough cells to score | inactive |
